# Values quoted from earlier work as cited in patent US20170258787A1, “PROPHYLACTIC AND/OR THERAPEUTIC AGENT FOR BEHAVIORAL AND PSYCHOLOGICAL SYMPTOMS ASSOCIATED WITH NEURODEGENERATIVE DISEASE OR IMPULSIVE SYMPTOMS ASSOCIATED WITH MENTAL DISEASE CONTAINING BREXPIPRAZOLE OR SALT THEREOF” (OTSUKA PHARMACEUTICAL CO., LTD., priority 2012, published 2017).
# At least one compound was matched to its structure with a doubt left.
# Test system: schizophrenia patients
# Details: Psychiatric Services 2001, 52:1510-14; cited from earlier work
compound,measurement,value
Cc1cc2c(s1)Nc1ccccc1N=C2N1CCN(C)CC1 [Olanzapine],hostility (positive scale of PANSS),minimum improving effect
